No constants are given. Whether binding was seen depends on the method and setting. For some assays here: Binding seen in cells or lysates may run through a third protein. Some entries that bind do so weakly or less than the wild type.
How the values were obtained:
[1] = molecular target: T1, minichromosome maintenance complex component 3 (MCM3) (human (endogenous in KYSE450 and KYSE410 ESCC cells)) (UniProt P25205); assay: co-IP
T1 sequence: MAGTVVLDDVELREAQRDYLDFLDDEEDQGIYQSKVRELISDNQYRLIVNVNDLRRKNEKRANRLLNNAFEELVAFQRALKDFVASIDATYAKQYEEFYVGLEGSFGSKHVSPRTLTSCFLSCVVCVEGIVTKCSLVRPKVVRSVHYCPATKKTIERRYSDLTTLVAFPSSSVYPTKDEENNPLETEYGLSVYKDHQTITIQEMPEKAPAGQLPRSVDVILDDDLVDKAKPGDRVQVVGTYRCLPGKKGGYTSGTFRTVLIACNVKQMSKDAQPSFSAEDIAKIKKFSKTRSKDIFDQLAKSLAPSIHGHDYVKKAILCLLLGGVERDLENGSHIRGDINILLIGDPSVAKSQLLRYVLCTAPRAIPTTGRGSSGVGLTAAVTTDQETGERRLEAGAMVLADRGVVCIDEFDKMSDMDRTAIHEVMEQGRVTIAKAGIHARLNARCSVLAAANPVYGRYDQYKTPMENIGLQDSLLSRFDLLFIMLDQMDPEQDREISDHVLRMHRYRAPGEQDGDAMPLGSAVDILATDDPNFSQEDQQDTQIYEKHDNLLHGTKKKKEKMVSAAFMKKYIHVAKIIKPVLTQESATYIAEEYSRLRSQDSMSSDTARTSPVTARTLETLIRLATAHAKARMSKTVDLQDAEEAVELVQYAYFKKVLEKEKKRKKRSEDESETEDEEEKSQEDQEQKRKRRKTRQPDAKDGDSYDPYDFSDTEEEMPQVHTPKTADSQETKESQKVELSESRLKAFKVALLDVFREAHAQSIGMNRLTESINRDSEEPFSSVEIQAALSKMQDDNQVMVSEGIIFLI

Sequences of proteins named here, by UniProt entry; tags and fusion partners are left off.
UniProt Q16665: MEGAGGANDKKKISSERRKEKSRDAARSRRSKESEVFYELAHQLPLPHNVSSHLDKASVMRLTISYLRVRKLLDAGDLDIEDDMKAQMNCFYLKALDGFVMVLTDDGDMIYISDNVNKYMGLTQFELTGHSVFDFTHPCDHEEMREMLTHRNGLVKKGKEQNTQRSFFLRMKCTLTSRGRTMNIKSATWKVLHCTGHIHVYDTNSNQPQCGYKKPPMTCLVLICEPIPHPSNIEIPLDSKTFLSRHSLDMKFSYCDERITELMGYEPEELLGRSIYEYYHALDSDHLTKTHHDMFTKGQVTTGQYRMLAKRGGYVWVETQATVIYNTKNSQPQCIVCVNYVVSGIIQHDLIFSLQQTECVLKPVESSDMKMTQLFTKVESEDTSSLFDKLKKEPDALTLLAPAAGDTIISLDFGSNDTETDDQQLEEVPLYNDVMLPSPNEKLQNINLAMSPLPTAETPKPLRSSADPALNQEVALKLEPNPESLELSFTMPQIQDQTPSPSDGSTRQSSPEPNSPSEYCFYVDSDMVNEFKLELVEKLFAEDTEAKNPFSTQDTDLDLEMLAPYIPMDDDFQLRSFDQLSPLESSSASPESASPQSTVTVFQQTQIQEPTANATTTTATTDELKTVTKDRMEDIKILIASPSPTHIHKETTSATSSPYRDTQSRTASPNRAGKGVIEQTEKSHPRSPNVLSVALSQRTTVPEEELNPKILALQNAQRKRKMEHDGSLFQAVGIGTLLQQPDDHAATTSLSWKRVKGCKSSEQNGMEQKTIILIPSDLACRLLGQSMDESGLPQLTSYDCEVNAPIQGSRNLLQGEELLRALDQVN

[2] = molecular target: T2, purified MCM3 protein (pGEX-6P-1-MCM3) (UniProt P25205); assay: co-IP
T2 sequence: T1 sequence

Substance: hypoxia-inducible factor 1α (HIF-1α) (from UniProt Q16665 1-826)
- binding [1]: binds

Substance: purified HIF-1α protein (pGEX-6P-1-HIF-1α) (from UniProt Q16665 1-826)
- binding [2]: binds

From doi:10.1101/2023.01.28.526069
